# Test results as given in patent publication EP4450494A1, “INDOLE DERIVATIVES AS HISTONE DEACETYLASE (HDAC) INHIBITORS FOR THE TREATMENT OF CANCER” (Consejo Superior De Investigaciones Científicas, priority 2023, dated 2024).
# Columns and labels:
# Type in all cases: cell-based
# GNS179 = experiment: MTT cell viability assay in GNS179; conditions: GNS179 (patient-derived); MTT assay after 72 h of treatment
# Experimental: (§1) As a first screening, dose-response assays were done in U87 glioblastoma cell line in order to obtain the IC50 values of the different compounds. Cells were seeded at a density of 1.500 cells/well in 96-well plates, incubated overnight and treated with increasing concentrations of the corresponding compounds. After 72 h of treatment, cell viability was determined by MTT assay. For this, MTT was added to the wells and cells were incubated for 3,5 h at 37 °C and 5% CO2. Then, media was removed and DMSO was added to resuspend the formed crystals. Absorbance at 570 nm was measured using a spectrophotometer, and GraphPad Prism software was used to analyze the results and calculate the IC50 values.
# (§2) First, we tested if the effect of the compound in cell viability was exclusive to U87 cell line or if it was repeated in other glioblastoma cell lines. With this aim, additional MTT assays were carried out following the same protocol in other glioblastoma conventional (U251) and patient-derived (GNS179) cell lines. Moreover, in order to compare the potential of our compound with other pan-inhibitors, MTT assays were also carried out for SAHA. […] Table 1. Comparison of IC50 values of DDI199 and pan-inhibitor SAHA in conventional (U87 and U251) and patient-derived (GNS179) cell lines.
# [1] = system: U87 glioblastoma cell line; experiment: MTT cell viability dose-response assay in U87; conditions: MTT assay after 72 h of treatment
# Experimental: as §1
# U251 = experiment: MTT cell viability assay in U251; conditions: Homo sapiens, U-251, MTT assay after 72 h of treatment
# Experimental: as §1, §2
compound,measurement,setting,value
"O=C(CCCCCCC(=O)Nc1ccccc1)NO [SAHA, suberoylanilide hydroxamic acid, reference compound]",IC50,GNS179,5.02 µM
same,IC50,[1],6.76 µM
same,IC50,U251,16 µM
